Results published in article PMC3717276, “Optimization and validation of mitochondria-based functional assay as a useful tool to identify BH3-like molecules selectively targeting anti-apoptotic Bcl-2 proteins” (BMC Biotechnology, 2013).
These are yes or no findings as the source states them, for the method shown.

The chains behind the UniProt entries cited, without tags or fusion partners. Where a name states a change or a piece, a line headed by the entry shows the natural chain unless it says otherwise. A line that says so, or that is headed by a name, gives the form on record, which may keep a tag or linker. Residues count along the entry.
UniProt Q07820, residues 171-327: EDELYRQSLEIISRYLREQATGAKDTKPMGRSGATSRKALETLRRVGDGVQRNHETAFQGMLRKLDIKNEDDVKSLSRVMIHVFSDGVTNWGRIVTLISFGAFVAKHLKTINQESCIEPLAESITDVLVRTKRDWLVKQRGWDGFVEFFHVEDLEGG
Human Bcl-xL protein with internal deletion of 45-85 and C-terminal truncation of 212-233, N-terminal 8xHis tagged (Q07817, form named): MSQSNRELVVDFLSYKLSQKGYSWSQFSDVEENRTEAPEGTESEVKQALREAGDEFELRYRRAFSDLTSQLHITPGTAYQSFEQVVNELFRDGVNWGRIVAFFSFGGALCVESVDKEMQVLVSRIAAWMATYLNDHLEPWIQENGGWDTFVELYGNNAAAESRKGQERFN

Tests used:
[1] = biological target: Human Mcl-1 protein, residues 171-327, N-terminal 8xHis tag (human) (UniProt Q07820); test: SPR; competitive solution binding: protein (20 nM) pre-incubated with tested BH3 peptide for at least 30 min, injected over immobilised biotin-Bim BH3 peptide; response at 30 s of dissociation; both purified
[2] = biological target: Human Mcl-1 protein, residues 171-327, N-terminal 8xHis tag (human) (UniProt Q07820); test: fluorescence polarisation; competition: Mcl-1 (20 nM) or Bcl-2 (40 nM) pre-incubated with FAM-Bid (2 nM and 2.5 nM), tested BH3 peptide added, 2-3 h; 100 mM potassium phosphate, pH 7.5, 100 ug/ml bovine gamma globulin, 0.02% sodium azide; Ki calculated from IC50; both purified
[3] = biological target: Human Bcl-xL protein with internal deletion of 45-85 and C-terminal truncation of 212-233, N-terminal 8xHis tagged (human) (UniProt Q07817); test: fluorescence polarisation; competition: 30 nM Bcl-xL and 2.5 nM FAM-Bak, tested BH3 peptide added; 50 mM Tris-Bis, pH 7.4, 0.01% bovine gamma globulin; Ki calculated from IC50; both purified
[4] = biological target: Human Bcl-xL protein with internal deletion of 45-85 and C-terminal truncation of 212-233, N-terminal 8xHis tagged (human) (UniProt Q07817); test: SPR; competitive solution binding: protein (20 nM) pre-incubated with tested BH3 peptide for at least 30 min, injected over immobilised biotin-Bim BH3 peptide; response at 30 s of dissociation; both purified

B1: Bad BH3 peptide (residues 103-128) (peptide)
peptide: NLWAAQRYGRELRRMSDEFVDSFKKG
binding [1]: no binding (tested: IC50 >30000 nM)
binding [2]: no binding (tested: Ki >20000 nM)

B2: Noxa BH3 peptide (residues 18-43) (peptide)
peptide: PAELEVECATQLRRFGDKLNFRQKLL
binding [3]: no binding (tested: Ki >10000 nM)
binding [4]: no binding (tested: IC50 >30000 nM)
